Results as given in patent publication US20110217240A1, “IMAGING NEUROLEPTIC COMPOUNDS” (priority 2008, published 2011).
For at least one compound, name, drawing or mass did not settle the structure.

Tested on: apomorphine-induced dopaminergic neurotransmission
Assay: BOLD fMRI of neuronal/glial activity in conscious rats pre-treated with an antipsychotic and challenged with apomorphine
Format: in vivo
Settings: then apomorphine 20 μg/10 μl ICV, conscious rat
Text: To image the brain activity of live rats (Charles River Laboratories, Wilmington, Mass.), the rats were anesthetized with 2-3% isoflurane (Abbott Laboratories, North Chicago, Ill.). Nine (9) rats were used for each experimental condition. A topical anesthetic of 10% lidocaine gel was applied to the skin and soft tissue around the ear canals and over the bridge of the nose. A plastic semi-circular headpiece with blunted ear supports that fit into the ear canals was positioned over the ears. The head was placed into a cylindrical head holder with the rat's canines secured over a bite bar and ears positioned inside the head holder with adjustable screws fitted into lateral sleeves. An adjustable, receive-only surface coil built into the head holder was pressed firmly on the head and locked into place. The body of the rat was placed into a body restrainer. The body restrainer “floats” down the center of the chassis connecting at the front and rear end-plates and buffered by rubber gaskets. The head piece locks into a mounting post on the front of the chassis. This design isolates all of the body movements from the head restrainer and minimizes motion artifact. Once the rat was positioned in the body holder, a transmit-only volume coil was slid over the head restrainer and locked into position.
When the rats were fully conscious, the restraining unit was placed into a black opaque tube mock scanner with a tape-recording of an MRI pulse sequence. This acclimation protocol lasted for 60 minutes in order to simulate the bore of the magnet and the imaging protocol. This procedure was repeated every other day for four days.
Experiments were conducted in a Bruker Biospec 4.7-T/40-cm horizontal magnet (Oxford Instrument, Oxford, U.K.) equipped with a Biospec Bruker console (Bruker, Billerica, Mass., U.S.A.) and a 20 G/cm magnetic field gradient insert (internal diameter=12 cm) capable of a 120 μs rise time (Bruker). Radiofrequency (RF) signals were sent and received with the dual coil electronics built into the animal restrainer (Ludwig et al., 2004, J. Neurosci. Methods 132(2):125-35). […]

[1] = antipsychotic pre-treatment i.p. (chlorpromazine, clozapine, olanzapine 5 mg/kg; haloperidol 1 mg/kg)

Structure (SMILES): Cc1cc2c(s1)Nc1ccccc1N=C2N1CCN(C)CC1 [olanzapine]
- neuronal/glial activity in the dorsal striatum (antipsychotic pre-treatment i.p. (chlorpromazine, clozapine, olanzapine 5 mg/kg)): reduction of neuronal/glial activity
- neuronal/glial activity in the anterior thalamic nuclei [1]: reducing apomorphine-induced neuronal/glial activity
- neuronal/glial activity in the pituitary gland [1]: reducing apomorphine-induced neuronal/glial activity
